The values that follow come from PubChem BioAssay AID1347423 (Functional Genomics Laboratory (NCATS/FGL), 2020).

Hit rate of the full screen: of about 52,000 sequences, about 210 (0.4%) were called active.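 The calls were made as follows: active = gene whose silencing raises cell survival under the drug, median off-target-corrected z-score across its silencing RNAs 2 or more; inactive = the rest.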 Some of the results follow.

A short description of this assay: Resistance to Poly (ADP-Ribose) Polymerase inhibitor: Gene Identification via Genome-wide siRNA Screen. Conditions: mouse BRCA2 R2336H ES cells, olaparib, CellTiter-Glo viability; hits give high values. A digest of the protocol: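 Genome-wide siRNA screen (3 siRNAs/gene, 20 nM) in mouse ES cells carrying hypomorphic BRCA2 R2336H; olaparib 500 nM added 48 h post-transfection, CellTiter-Glo viability 72 h later. Normalized to plate-median negative control; MAD z-scores, gene median, seed-adjusted.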
Take GGACGGGAUUGAGCCUAUGTT against Eif4e: the z-score is inactive: -0.356.
With GGUAUAGACUGGAAGUAUUTT against Dnajc3, the z-score was inactive: -1.4.
For GGAGAAAACUUUCUGUGUGTT against Nrg1, the z-score was inactive: 0.285.
To “GGUACUACAAGAGAAAAGATT against 3110052N05Rik” belongs inactive: -1.68; to CGUACAACCUCAAGGUUCUTT against Lag3, inactive: -1.84; to “GGGCACACUGUAAAGUUGGTT against 3110038L01Rik”, inactive: 0.788.
The same measure for GCUCAGAUAUGAGCAAGCUTT against Fadd: inactive: -0.651.
Regarding CCAAAGAAGGACUUAGAUUTT against Ddx50, the z-score was inactive: -0.487.
For the sequence GGCAAUGCUGCAUCUCCUATT against Fbln2, the z-score was inactive: -0.842.
On to “GGAGAAAAGCUGUAUACACTT against 2300008B03Rik”, for which the z-score was inactive: -0.162.
For “GCCAGAAGAAUCUAUGUUATT against 1700008I05Rik”, the z-score is inactive: -0.165.
Consider GCAAAACCAUUUCGAAACATT against Slc41a3, for which the z-score is inactive: 0.102.
With GGUUCUACAUUGGCGAGAUTT against Cdc42bpb, the z-score is inactive: -0.27.
Consider GGUACAAAGACUGACGAGUTT against AU067744, for which the z-score is inactive: 0.443.
On to GCAUUAGAACAAAGGAUGCTT against Rps19, for which the z-score was inactive: -3.29.
For the sequence CGCAGUACAUACAACUGUGTT against Art1, the z-score is inactive: 0.827.
Turning to GGAUUGUGGUCCAUGAAUATT against Tmprss7, the z-score was inactive: 0.575.
“GCAGUCAUUCAAGGUUCCUTT against 8430410A17Rik”: the z-score is inactive: -0.702.
GGGUUGCUUCAACUUUUAGTT against Mpp1: the z-score is inactive: 0.623.
For the sequence “GGCAAACCUGCUUCUGCUATT against 1700049K14Rik”, the z-score was inactive: -1.31.
In the case of CCAUUGAGAUCAGCGACAUTT against AW539457, the z-score was inactive: -1.31.
As to GGUCGAUCCAAGGAAAGAUTT against Gbas, the z-score is inactive: -1.57.
As to GGGAAUUACAGCACACAAUTT against Treml4, the z-score is inactive: -0.488.
Turning to GGUGAGCAUGGACUAUGAUTT against Syt12, the z-score was inactive: -0.053.
GUUUCUUCCAAACUCCAUCTT against Olfr487: the z-score is inactive: -0.204.
Turning to GCGUGUAAGUAUGAGAACCTT against AW456874, the z-score is inactive: 0.0754.
As to GCCAACAUGUAUCAAAGCUTT against Rpgr, the z-score was inactive: -0.0745.
For the sequence “UAAUACAUUUCGAGCUGCATT against D11Bwg0517e”, the z-score was inactive: -0.0517.
